According to paper PMC4906169:
These are yes or no findings as the source states them, for the method shown. In cells and extracts the contact can be indirect. Some entries that bind do so weakly or less than the wild type. Tags and fused reporters may be left off the sequences shown.

Tests used:
[1] = molecular target: T1, STELLO1 (STL1), BiFC fusion (Yn-STL1 / Yc-STL1) (Arabidopsis thaliana) (UniProt O22943); assay: split reporter; BiFC with Yn/Yc halves of VENUS fused to the N-termini; transient co-expression in N. benthamiana epidermal leaf cells, imaged by confocal microscopy 62 h after infiltration
T1 sequence: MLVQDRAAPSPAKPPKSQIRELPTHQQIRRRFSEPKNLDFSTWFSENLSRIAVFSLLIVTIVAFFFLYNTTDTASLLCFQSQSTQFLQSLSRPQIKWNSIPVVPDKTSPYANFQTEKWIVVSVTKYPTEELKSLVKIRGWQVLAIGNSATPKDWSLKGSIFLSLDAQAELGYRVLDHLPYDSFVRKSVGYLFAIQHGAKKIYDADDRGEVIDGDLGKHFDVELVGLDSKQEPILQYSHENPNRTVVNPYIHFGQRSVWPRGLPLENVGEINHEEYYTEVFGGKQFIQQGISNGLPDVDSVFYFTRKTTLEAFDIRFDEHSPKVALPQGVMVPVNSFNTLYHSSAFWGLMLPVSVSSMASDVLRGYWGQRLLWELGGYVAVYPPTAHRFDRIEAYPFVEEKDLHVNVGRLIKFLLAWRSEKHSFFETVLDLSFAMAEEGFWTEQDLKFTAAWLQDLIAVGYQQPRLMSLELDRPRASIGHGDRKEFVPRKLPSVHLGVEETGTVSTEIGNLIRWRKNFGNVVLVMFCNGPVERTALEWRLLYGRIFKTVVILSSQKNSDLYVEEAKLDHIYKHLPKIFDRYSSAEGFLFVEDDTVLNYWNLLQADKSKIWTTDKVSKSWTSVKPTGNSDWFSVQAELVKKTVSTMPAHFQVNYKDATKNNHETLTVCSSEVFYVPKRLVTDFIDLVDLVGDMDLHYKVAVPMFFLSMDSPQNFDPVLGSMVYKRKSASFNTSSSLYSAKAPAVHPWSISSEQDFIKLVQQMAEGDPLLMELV

[2] = molecular target: T2, STELLO2 (STL2), BiFC fusion (Yn-STL2 / Yc-STL2) (Arabidopsis thaliana) (UniProt Q9SCN0); assay: as above
T2 sequence: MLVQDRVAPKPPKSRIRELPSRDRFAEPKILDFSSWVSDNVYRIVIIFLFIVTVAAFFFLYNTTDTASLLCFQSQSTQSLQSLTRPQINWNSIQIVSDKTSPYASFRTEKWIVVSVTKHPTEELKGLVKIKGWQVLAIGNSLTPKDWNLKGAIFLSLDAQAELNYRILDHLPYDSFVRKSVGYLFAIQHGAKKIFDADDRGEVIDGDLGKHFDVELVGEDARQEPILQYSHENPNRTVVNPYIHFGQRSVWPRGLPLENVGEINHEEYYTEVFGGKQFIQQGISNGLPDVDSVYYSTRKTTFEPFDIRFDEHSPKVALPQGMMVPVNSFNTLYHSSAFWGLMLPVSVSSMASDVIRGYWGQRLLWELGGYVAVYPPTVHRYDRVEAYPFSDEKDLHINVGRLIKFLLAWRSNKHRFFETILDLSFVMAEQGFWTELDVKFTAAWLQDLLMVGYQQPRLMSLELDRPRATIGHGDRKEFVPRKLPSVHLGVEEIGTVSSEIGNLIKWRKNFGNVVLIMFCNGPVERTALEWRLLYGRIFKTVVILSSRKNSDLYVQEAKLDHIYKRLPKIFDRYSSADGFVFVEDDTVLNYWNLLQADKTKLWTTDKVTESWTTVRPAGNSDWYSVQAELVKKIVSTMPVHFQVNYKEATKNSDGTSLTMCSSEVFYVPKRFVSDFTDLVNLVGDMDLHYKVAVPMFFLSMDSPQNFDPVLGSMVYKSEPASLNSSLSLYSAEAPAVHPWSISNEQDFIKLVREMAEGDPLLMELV

B1: Cellulose synthase CesA6, BiFC fusion (protein, UniProt Q94JQ6 1-1084)
chain: MNTGGRLIAGSHNRNEFVLINADENARIRSVQELSGQTCQICRDEIELTVDGEPFVACNECAFPVCRPCYEYERREGNQACPQCKTRFKRLKGSPRVEGDEEEDDIDDLDNEFEYGNNGIGFDQVSEGMSISRRNSGFPQSDLDSAPPGSQIPLLTYGDEDVEISSDRHALIVPPSLGGHGNRVHPVSLSDPTVAAHPRPMVPQKDLAVYGYGSVAWKDRMEEWKRKQNEKLQVVRHEGDPDFEDGDDADFPMMDEGRQPLSRKIPIKSSKINPYRMLIVLRLVILGLFFHYRILHPVKDAYALWLISVICEIWFAVSWVLDQFPKWYPIERETYLDRLSLRYEKEGKPSGLSPVDVFVSTVDPLKEPPLITANTVLSILAVDYPVDKVACYVSDDGAAMLTFEALSETAEFARKWVPFCKKYCIEPRAPEWYFCHKMDYLKNKVHPAFVRERRAMKRDYEEFKVKINALVATAQKVPEDGWTMQDGTPWPGNSVRDHPGMIQVFLGSDGVRDVENNELPRLVYVSREKRPGFDHHKKAGAMNSLIRVSGVLSNAPYLLNVDCDHYINNSKALREAMCFMMDPQSGKKICYVQFPQRFDGIDRHDRYSNRNVVFFDINMKGLDGLQGPIYVGTGCVFRRQALYGFDAPKKKKGPRKTCNCWPKWCLLCFGSRKNRKAKTVAADKKKKNREASKQIHALENIEEGRVTKGSNVEQSTEAMQMKLEKKFGQSPVFVASARMENGGMARNASPACLLKEAIQVISCGYEDKTEWGKEIGWIYGSVTEDILTGFKMHSHGWRSVYCTPKLAAFKGSAPINLSDRLHQVLRWALGSVEIFLSRHCPIWYGYGGGLKWLERLSYINSVVYPWTSLPLIVYCSLPAICLLTGKFIVPEISNYASILFMALFSSIAITGILEMQWGKVGIDDWWRNEQFWVIGGVSAHLFALFQGLLKVLAGVDTNFTVTSKAADDGEFSDLYLFKWTSLLIPPMTLLIINVIGVIVGVSDAISNGYDSWGPLFGRLFFALWVIIHLYPFLKGLLGKQDRMPTIIVVWSILLASILTLLWVRVNPFVAKGGPILEICGLDCL
- binding [1]: binds
- binding [2]: binds
